Source: PubChem BioAssay AID1259405 (NCATS, 2018)
The whole screen tested about 50,000 reagents; below is an unselected part. Over the whole deposit, about 4,000 (8%) got an active call. 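Mouse siRNA library applied to hamster cells; one well for each siRNA.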 The numbers tell different reagents against one gene apart.

Assay: 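Mouse-designed siRNAs used to find CHO productivity engineering targets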 (primary screen)
Cells: Chinese hamster CHO-K1 ovary cells with stable secreted eGFP expression
Reagent: single siRNA against mouse genes, 0.8 pmol siRNA per well (2 µl of 400 nM stock)
Time to read-out: 3 days
Measured: 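Per-well intracellular GFP measured by laser scanning cytometry, plus viability from ATP luminescence, each relative to plate median of non-targeting control wells, in %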
Direction: GFP, % of control: higher = more GFP per well, higher productivity; viability (ATP), % of control: higher = more viable cells (more ATP)
Rule for the call: 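a knock-down is called active if GFP reaches 120% or more of non-targeting control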

Styk1 gave GFP, % of control 86.6; viability (ATP), % of control 70.3; inactive. For Btbd9 #1 the deposit lists GFP, % of control 97.9; viability (ATP), % of control 105; inactive. Btbd9 #2 gave GFP, % of control 95.8; viability (ATP), % of control 81.9; inactive. After knock-down of Btbd9 #3 the results were GFP, % of control 136; viability (ATP), % of control 143; active. After knock-down of Gsta3 #1, the record shows GFP, % of control 93.1; viability (ATP), % of control 65; inactive. Gsta3 #2 showed GFP, % of control 104; viability (ATP), % of control 103; inactive.

Gsta3 #3 showed GFP, % of control 56.7; viability (ATP), % of control 52.4; inactive. Knock-down of Tex101 #1 came out at: GFP, % of control 93.6; viability (ATP), % of control 87.7; inactive. Knock-down of Tex101 #2 gave: GFP, % of control 68.7; viability (ATP), % of control 98.5; inactive. After knock-down of Tex101 #3 the results were GFP, % of control 176; viability (ATP), % of control 130; active. For Msto1 #1, the entry reads GFP, % of control 83.9; viability (ATP), % of control 52.5; inactive. Against Msto1 #2, the entry reads GFP, % of control 66.4; viability (ATP), % of control 75.6; inactive.

Knock-down of Msto1 #3 resulted in: GFP, % of control 88.9; viability (ATP), % of control 123; inactive. For Mrps30 #1 the deposit lists GFP, % of control 63.3; viability (ATP), % of control 58.1; inactive. With knock-down of Mrps30 #2, the record shows GFP, % of control 70.9; viability (ATP), % of control 89.7; inactive. Mrps30 #3 scored GFP, % of control 64.6; viability (ATP), % of control 56.1; inactive.

Single entries from the entries so far:
Value of Msto1 #1 under “GFP, % of control”: 83.9
Gsta3 #1, viability (ATP), % of control = 65
Value of Btbd9 #3 in “GFP, % of control”: 136
